Screen size: about 53,000 sequences; about 3,700 (7%) were called active.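 How the source made its calls: active means gene knockdowns whose robust z-score for IL-1 alpha signal is at least 2 or at most -2, so actives lie on both sides; inactive means the rest.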 The list shows a part of the results.

This experiment is described as follows: Components of the Cytosolic LPS Sensing Pathway: Gene Identification via Genome-wide siRNA Screen.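 Further: robust z of the log signal after scaling to non-targeting control siRNA wells of the plate.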 Conditions: RAW264.7 macrophages, IL-1a HTRF, actives lie on both sides, screened at 100 nM (by protocol), cells primed 5 h with Pam3CSK4 first. Put shortly:
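RAW264.7 mouse macrophages reverse-transfected with single siRNAs (100 nM final) for 48h, primed with Pam3CSK4 for 5 hours, then transfected with LipidA for 24 hour. Supernatant IL-1a read by HTRF; values normalized to negative-control median, log-transformed robust z-scores.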
Turning to GGCCUAUUCAAAAAUCAGCTT against Fndc7, the z-score was inactive: -0.186.

Regarding GGAACAUCUUUCUUCUCCATT against Abhd4, the z-score is inactive: -0.869.

For CGGCAGAUUGCUGCUUUGATT against Vmn2r122, the z-score was active: 2.73.

Consider GGAGGAGUGAUUGUUAUACTT against Slfn9, for which the z-score is inactive: -0.499.

Consider CCACUUUCACCACAAAGUCTT against Klre1, for which the z-score was inactive: -0.384.

As to GGAAGCUGGCUGGAAAGAUTT against Saa2, the z-score is inactive: 1.16.

On to GGUUAUUUUGUUGGAAGUCTT against Csrnp2, for which the z-score was inactive: -0.231.

As for GUGAUAAAUGCUGAUAGUGTT against Olfr1280, the z-score is inactive: -0.515.

With CGGGCUGCUACGAAAAAGUTT against Tspan9, the z-score is inactive: 0.152.

As for GGAUUAUCCUGGCUUGUUGTT against Rdh12, the z-score is inactive: -0.962.

GCAUAUGAUUAUUCUGGGATT against Cox7a2l: the z-score is inactive: -0.203.

As for CGUUUGAAUAAUUCAGAGUTT against Armcx2, the z-score is inactive: -0.152.

As for GGACGGACCUUUGUGUCUCTT against Axl, the z-score was inactive: 0.13.

As for GGGUUACUUUAGCUAUUUCTT against Rbm14, the z-score was inactive: -1.11.

On to GGAACAGUGAUCCAUUUUATT against Btf3, for which the z-score was inactive: 0.11.

With GGGUCCUUUUUCACAUGGUTT against Asph, the z-score is active: 2.82.

In the case of GGUGGACCUGAAACGUAGCTT against Inhbb, the z-score was inactive: 0.878.

With CCUGCCAAGCAGAUUUUAUTT against Rtbdn, the z-score was inactive: -1.46.

For the sequence GGAGAAUGUGCAUAAACUGTT against Pitpna, the z-score was inactive: -0.0799.

On to GGCUGAUGGAAUUGUCUCATT against Rps21, for which the z-score was inactive: -0.712.

Regarding GGAGCUUGCUCAGACUACUTT against Cct8, the z-score was inactive: -0.914.

Turning to GGUUGAGUACACCAAGAAUTT against Dcx, the z-score is inactive: 0.961.

Consider GGUUCUAAAACUUAACAAGTT against Brf2, for which the z-score was active: 2.7.

On to GCAACCUGAUAGUGUGGUCTT against Crisp1, for which the z-score was inactive: 1.53.

On to GCCUUCUGAGAUAGUAGAUTT against Zcchc17, for which the z-score is inactive: 0.756.

On to GGAACAAGUGGUAUUCCCGTT against Pip4p2, for which the z-score is inactive: 0.329.

As for GGGUUCAAGAGAUGGGAAUTT against Efna5, the z-score was inactive: 0.453.

Consider GCUUCGAAGGCAAAUGUGGTT against Vamp4, for which the z-score was inactive: -0.142.

Consider GGAGCUGGAACAGAUGGAATT against Atf5, for which the z-score was inactive: 0.967.

As to CCUUAGGACAAGUAUUCUGTT against Cbx6, the z-score is inactive: 0.47.

As to GGAAGAAUUGAAUUGUAUGTT against Pom121, the z-score was inactive: 1.37.

As to GGCAAUGAUGAGACCUAGUTT against Mybbp1a, the z-score is inactive: 0.0956.

On to GGUGUCUGUCAUGACCAUGTT against Tie1, for which the z-score was inactive: 0.907.

Consider CCAGUAAACCUACAUGUUCTT against Htr3b, for which the z-score is inactive: -0.024.

For GGCUACAAAGAUGCAGACUTT against Pi4k2a, the z-score was inactive: 0.22.

Regarding CCCAAAUCCUACGAAGCCUTT against Tanc1, the z-score was inactive: -1.9.

With GGAUCACUACAAGUUGGCUTT against Gtpbp4, the z-score is inactive: -1.52.

On to CCUUUGGACGCAACCAGUUTT against Ugt1a6b, for which the z-score was active: 2.04.

For the sequence CCUCAAUCCUGGUCUAAAATT against Plcl2, the z-score is inactive: -0.342.

Take UGCCAUGGGACUCAUAGGCTT against Olfr160: the z-score was inactive: -1.76.

With GGAACACCUUGAAUGAUGUTT against Efcab9, the z-score was inactive: -1.76.

Turning to GGCUGUCCAGACUAGUUCUTT against Lsm14b, the z-score is inactive: -0.317.

For the sequence CCAUUCUCCUCAGAUACUCTT against Slc25a17, the z-score is inactive: -1.38.

For the sequence GGUUCACCAUCAAACCCUUTT against Plbd2, the z-score was inactive: -0.69.

Turning to GCAAACUGUGGACAUUUAATT against Gabra5, the z-score is inactive: 0.82.

For the sequence AAUCUUGAGAGAUUUCUCCTT against Scd2, the z-score is inactive: -0.047.

In the case of GGUCAUAUGAGCGCACAGGTT against Ccnl2, the z-score is inactive: 0.748.

Consider CCCAGAUGGAUUUUUGCAUTT against Gm10413, for which the z-score was inactive: 0.102.

In the case of GGCAUUCGAGGAGACUCAUTT against Pnpo, the z-score was inactive: -1.61.

For the sequence GCACUCACAUUGAAUUAAATT against Haus2, the z-score is inactive: -0.285.

In the case of GGUAUUUGAAGGGACAUCUTT against Atp6v1b2, the z-score was inactive: -0.817.

“GCUCCCUUCCCAAUAAAGCTT against Gadd45gip1”: the z-score is inactive: 0.208.

As to GGAAGUAGUCUUCUACAGUTT against Cyp4f15, the z-score is inactive: -0.0176.

In the case of GCUGCUUUGGCAACUUUCATT against Lix1, the z-score is inactive: -0.696.

Take CGUUAGCUGUUAUGAUCUATT against Cept1: the z-score is inactive: 0.203.

For the sequence “GGCAGUAUUGACUCCUACCTT against 6430548M08Rik”, the z-score is inactive: -0.973.

Turning to GGAUGCUACGUUCUGCUAGTT against Bcat2, the z-score was inactive: 0.349.

Consider GGAAGAAUCUGUUACUUUUTT against Rad1, for which the z-score was inactive: -0.693.

With GGAGUUUCUGGAAUGCAGGTT against Sec22c, the z-score is inactive: 0.741.

As to GGCCUCAGAUAUAGGUCUCTT against Cln6, the z-score is inactive: 0.513.

Consider GGUCAGAAGAGAUCAAAAGTT against Ttc23, for which the z-score is inactive: -0.0386.

As to GCUUCACCUAGAGAUUAUUTT against Dcun1d4, the z-score was inactive: -0.557.

As for GCAGCUUUUUGAGGUGUUATT against Slc9a7, the z-score was active: 3.07.

CGCAUUGCCAAACAACUCUTT against Gad2: the z-score was inactive: 0.295.

Regarding GGAGAACGAUUUCGAUCGCTT against Cope, the z-score was inactive: -0.356.

For the sequence CCACUAAUUACAGUAACAUTT against Akr1c20, the z-score was inactive: -1.11.

For the sequence GGUACGCUCCAGGAAUAUCTT against Suds3, the z-score was inactive: 0.584.

As to CCUUUUCUAUAGAUUCUCGTT against Vmn1r178, the z-score is inactive: 0.529.

For the origin of these results see PubChem BioAssay AID1508600 (Functional Genomics Laboratory (NCATS/FGL), 2020).
